# Measurements: the supplement of paper PMC12067093, “Discovery and optimisation of a covalent ligand for TRIM25 and its application to targeted protein ubiquitination” (Chemical Science, 2025)
# Sequences of proteins named here, by UniProt entry; tags and fusion partners are left off. A change or cut given only in a name is not applied to a line headed by its entry.
# UniProt O00139: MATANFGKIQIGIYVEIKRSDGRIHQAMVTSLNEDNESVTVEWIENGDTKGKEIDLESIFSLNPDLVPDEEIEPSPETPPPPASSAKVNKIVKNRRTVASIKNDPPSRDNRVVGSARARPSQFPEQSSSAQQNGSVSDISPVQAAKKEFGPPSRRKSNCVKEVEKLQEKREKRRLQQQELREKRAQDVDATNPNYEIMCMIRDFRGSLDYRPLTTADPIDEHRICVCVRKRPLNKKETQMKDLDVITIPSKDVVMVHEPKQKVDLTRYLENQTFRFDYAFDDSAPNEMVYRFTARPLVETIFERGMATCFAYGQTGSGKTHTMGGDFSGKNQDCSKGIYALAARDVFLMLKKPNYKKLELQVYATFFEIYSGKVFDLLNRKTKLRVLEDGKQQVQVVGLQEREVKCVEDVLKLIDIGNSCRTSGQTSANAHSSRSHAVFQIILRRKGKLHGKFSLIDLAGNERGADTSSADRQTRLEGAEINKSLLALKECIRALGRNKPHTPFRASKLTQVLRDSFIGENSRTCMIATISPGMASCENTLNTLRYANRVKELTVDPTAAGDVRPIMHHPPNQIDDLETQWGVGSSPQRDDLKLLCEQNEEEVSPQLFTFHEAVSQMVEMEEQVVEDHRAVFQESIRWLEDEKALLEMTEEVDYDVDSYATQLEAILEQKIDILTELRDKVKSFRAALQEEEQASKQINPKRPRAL
# UniProt Q9Y2M5: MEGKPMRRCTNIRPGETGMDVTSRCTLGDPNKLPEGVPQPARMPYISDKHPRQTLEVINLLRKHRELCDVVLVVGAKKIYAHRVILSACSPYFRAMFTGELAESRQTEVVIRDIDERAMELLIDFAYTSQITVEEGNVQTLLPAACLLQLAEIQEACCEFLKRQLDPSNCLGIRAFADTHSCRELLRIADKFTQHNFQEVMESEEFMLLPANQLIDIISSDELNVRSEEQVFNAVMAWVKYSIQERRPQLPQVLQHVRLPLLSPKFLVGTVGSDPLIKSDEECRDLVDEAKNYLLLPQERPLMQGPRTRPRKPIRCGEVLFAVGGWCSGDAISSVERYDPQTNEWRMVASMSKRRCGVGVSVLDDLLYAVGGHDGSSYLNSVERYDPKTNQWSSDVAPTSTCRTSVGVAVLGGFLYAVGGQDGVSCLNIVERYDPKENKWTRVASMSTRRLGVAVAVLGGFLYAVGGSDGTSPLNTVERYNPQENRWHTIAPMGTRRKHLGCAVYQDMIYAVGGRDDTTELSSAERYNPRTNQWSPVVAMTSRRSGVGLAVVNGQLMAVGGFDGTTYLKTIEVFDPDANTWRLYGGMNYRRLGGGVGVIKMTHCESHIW
# UniProt Q71RC2, whole entry, looked up: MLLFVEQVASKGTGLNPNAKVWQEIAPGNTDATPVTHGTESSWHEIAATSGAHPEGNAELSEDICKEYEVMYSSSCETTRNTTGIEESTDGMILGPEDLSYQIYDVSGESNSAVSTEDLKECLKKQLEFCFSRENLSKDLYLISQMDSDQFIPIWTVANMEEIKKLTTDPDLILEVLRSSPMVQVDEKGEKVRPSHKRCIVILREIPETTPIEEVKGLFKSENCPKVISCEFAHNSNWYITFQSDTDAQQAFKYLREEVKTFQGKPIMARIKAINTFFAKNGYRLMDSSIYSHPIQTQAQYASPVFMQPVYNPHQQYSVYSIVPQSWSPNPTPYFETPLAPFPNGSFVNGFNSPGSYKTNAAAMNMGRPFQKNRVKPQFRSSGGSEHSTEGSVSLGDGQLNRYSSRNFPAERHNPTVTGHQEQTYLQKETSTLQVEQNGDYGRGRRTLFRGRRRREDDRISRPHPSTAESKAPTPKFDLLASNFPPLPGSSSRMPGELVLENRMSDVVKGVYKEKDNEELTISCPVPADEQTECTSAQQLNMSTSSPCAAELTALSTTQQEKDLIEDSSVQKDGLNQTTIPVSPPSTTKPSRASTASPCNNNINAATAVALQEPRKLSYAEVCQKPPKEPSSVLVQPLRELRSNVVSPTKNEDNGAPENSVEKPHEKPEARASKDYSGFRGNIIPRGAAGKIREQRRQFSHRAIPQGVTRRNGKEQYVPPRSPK
# UniProt Q9GZY6: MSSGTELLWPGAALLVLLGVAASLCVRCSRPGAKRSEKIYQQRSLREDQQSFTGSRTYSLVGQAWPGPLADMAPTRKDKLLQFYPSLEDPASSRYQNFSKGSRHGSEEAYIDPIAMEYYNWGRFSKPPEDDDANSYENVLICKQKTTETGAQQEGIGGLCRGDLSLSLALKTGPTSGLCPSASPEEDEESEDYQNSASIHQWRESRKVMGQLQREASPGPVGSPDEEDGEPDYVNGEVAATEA
# UniProt P83111: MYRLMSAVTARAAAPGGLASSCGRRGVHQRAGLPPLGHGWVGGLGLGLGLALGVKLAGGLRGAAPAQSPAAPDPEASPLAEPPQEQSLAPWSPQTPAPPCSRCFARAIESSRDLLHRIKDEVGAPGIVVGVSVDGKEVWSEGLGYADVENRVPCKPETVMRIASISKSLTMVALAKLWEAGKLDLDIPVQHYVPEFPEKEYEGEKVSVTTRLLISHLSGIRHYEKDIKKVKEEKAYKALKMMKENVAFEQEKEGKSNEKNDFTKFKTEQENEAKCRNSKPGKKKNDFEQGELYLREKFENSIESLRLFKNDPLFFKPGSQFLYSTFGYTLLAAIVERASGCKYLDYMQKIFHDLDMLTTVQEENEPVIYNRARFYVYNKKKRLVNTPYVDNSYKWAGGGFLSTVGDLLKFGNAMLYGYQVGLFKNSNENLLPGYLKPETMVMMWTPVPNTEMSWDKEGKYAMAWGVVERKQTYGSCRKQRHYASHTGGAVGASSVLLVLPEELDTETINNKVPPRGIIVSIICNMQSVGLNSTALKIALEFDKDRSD
# UniProt P11047: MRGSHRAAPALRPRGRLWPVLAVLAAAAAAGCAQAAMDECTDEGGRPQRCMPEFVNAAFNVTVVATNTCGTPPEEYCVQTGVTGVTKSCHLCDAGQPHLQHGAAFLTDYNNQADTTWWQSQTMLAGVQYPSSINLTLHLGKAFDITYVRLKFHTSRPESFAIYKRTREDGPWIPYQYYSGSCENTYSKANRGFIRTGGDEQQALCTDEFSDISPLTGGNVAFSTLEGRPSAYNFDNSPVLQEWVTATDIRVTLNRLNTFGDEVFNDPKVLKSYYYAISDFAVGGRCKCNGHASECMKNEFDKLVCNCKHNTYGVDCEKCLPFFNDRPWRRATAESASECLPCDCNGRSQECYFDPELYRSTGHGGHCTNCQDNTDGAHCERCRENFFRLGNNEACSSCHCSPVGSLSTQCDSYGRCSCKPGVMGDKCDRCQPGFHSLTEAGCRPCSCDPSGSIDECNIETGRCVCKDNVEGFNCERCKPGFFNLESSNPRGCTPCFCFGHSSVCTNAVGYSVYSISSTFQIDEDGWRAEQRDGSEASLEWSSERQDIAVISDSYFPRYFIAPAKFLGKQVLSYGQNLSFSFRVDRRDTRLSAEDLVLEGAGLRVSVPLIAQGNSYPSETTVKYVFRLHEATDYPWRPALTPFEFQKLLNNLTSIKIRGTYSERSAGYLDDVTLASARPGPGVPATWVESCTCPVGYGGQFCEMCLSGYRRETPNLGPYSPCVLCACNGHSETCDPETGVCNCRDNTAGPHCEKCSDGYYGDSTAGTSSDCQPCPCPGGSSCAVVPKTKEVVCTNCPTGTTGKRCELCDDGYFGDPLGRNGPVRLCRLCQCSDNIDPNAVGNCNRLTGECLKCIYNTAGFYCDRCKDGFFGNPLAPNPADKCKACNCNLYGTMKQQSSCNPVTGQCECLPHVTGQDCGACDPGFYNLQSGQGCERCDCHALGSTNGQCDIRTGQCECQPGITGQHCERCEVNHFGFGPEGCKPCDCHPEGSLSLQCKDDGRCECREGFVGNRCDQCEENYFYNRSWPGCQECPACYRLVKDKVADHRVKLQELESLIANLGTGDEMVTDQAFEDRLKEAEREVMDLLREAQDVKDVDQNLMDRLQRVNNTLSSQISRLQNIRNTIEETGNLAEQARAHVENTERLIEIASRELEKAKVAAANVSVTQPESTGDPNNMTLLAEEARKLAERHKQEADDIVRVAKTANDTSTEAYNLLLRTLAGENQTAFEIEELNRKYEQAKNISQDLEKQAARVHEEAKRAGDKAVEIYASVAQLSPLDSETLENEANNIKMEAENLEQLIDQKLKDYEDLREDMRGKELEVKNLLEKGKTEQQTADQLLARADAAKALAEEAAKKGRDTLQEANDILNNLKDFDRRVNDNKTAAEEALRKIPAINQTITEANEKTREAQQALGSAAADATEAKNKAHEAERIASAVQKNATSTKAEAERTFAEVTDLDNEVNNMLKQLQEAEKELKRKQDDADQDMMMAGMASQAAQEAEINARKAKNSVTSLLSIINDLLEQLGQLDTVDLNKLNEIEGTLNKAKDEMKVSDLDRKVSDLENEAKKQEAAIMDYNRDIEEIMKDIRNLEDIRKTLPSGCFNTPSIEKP
# UniProt Q86UP2: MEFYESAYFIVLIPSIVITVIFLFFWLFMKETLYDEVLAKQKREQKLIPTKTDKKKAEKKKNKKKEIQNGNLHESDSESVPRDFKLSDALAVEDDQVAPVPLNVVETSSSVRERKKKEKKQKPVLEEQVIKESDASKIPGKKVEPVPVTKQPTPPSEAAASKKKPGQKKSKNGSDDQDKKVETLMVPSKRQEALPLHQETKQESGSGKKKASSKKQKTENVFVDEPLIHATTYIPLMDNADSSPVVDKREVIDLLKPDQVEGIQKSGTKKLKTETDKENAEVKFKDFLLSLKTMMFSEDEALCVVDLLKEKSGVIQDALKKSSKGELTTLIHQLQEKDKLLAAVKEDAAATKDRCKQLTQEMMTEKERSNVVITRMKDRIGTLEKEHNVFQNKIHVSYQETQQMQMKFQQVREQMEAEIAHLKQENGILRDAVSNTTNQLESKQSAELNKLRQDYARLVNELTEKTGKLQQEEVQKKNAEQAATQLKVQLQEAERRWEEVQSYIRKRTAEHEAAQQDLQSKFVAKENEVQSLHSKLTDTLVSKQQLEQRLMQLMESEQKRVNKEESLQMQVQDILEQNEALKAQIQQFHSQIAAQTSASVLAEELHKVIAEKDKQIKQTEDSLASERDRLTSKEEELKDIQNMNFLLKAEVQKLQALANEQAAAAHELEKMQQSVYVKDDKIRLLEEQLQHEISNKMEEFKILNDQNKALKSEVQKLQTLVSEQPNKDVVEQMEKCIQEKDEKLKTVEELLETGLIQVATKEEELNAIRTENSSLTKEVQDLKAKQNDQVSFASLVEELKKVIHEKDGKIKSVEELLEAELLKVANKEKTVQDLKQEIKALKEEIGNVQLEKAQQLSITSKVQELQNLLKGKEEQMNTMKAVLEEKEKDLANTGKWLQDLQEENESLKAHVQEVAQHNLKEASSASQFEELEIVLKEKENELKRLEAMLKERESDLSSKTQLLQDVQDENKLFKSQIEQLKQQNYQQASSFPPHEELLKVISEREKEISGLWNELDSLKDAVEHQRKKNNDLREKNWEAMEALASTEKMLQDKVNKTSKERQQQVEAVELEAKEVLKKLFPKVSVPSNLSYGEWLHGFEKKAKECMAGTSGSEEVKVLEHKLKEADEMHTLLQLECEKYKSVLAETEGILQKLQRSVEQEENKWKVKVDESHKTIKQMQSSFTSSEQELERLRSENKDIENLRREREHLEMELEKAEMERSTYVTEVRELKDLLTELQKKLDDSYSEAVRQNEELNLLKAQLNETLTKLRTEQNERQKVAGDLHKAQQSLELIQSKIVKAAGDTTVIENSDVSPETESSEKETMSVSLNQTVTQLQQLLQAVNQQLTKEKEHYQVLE
# UniProt Q53H82: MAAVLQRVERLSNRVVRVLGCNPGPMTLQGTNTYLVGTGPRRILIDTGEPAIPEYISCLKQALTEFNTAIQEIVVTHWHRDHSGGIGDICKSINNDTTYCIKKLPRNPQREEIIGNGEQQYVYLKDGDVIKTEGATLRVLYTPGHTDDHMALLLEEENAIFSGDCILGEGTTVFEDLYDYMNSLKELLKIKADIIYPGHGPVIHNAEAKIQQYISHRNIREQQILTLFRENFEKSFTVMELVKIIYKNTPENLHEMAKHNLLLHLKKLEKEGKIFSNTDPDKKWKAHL
# UniProt O43813, whole entry, looked up: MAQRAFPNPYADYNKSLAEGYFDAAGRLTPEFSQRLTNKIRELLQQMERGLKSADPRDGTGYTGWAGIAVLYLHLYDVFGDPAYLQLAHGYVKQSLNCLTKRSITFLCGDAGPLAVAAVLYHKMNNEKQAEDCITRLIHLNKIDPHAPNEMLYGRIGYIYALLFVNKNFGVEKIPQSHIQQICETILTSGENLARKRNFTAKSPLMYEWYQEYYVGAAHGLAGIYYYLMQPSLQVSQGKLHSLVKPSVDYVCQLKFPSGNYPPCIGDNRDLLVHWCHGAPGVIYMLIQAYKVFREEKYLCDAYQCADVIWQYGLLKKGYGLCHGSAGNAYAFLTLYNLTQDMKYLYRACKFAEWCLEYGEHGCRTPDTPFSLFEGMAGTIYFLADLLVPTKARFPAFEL
# The list shows a part of the results.
# Compound: CC1Cc2ccccc2N1C(=O)C1CCCN(C1)C(=O)CCl (mixture of isomers) [TRIM25 ligand 11 (diastereomer mixture)]
# Experiment: probe-labelled cysteine peptide fold change vs DMSO (competition) (log2 fold change); higher = less target engagement (more negative = stronger competition)
# Conditions: THP-1, incubation time: 4 h
# 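Further: competitive chemoproteomic profiling in live THP-1 cells with an iodoacetamide desthiobiotin (IA-DTB) probe, comparing probe-labelled peptide intensities in compound-treated cells against DMSO-treated controls.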
Target,probe-labelled cysteine peptide fold change (10 µM),probe-labelled cysteine peptide fold change (50 µM)
KPNB1_Q14974_765_ESCLEAYTGIVQGLKGDQENVHPDVMLVQPR (UniProt Q14974),0.0989,-0.218
KIF2A_O00139_159_KSNCVK (UniProt O00139),-0.178,-0.462
LARP1_Q6PKG0_502_RREEPEKWPLPPIVDYSQTDFSQLLNCPEFVPR (UniProt Q6PKG0),-0.0362,-0.156
KLHL20_Q9Y2M5_356_CGVGVSVLDDLLYAVGGHDGSSYLNSVER (UniProt Q9Y2M5),0.0717,-0.023
KMT2D_O14686_5338_HPLMELPLMINPTGCAR (UniProt O14686),-0.039,0.367
LARP4_Q71RC2_623_KLSYAEVCQKPPKEPSSVLVQPLR (UniProt Q71RC2),-0.0136,-0.246
LAT2_Q9GZY6_160_TTETGAQQEGIGGLCR (UniProt Q9GZY6),0.0117,-0.118
LACTB_P83111_154_EVWSEGLGYADVENRVPCKPETVMR (UniProt P83111),0.11,0.0521
LAMC1_P11047_804_RCELCDDGYFGDPLGR (UniProt P11047),-0.0583,0.389
KTN1_Q86UP2_1136_EADEMHTLLQLECEK (UniProt Q86UP2),0.0345,0.156
LACTB2_Q53H82_58_ILIDTGEPAIPEYISCLK (UniProt Q53H82),0.0984,-0.0283
KIF20B_Q96Q89_1642_HPGCTTPVTVK (UniProt Q96Q89),-0.0424,0.0715
LANCL1_O43813_252_LHSLVKPSVDYVCQLK (UniProt O43813),-0.00553,0.226
